Among the data in PubChem BioAssay AID1794845 (National Center for Advancing Translational Sciences (NCATS), 2023) are activity % (negative = inhibition) values, retold here.

Chains of the proteins cited; added tags and fusions are not shown. Lines headed by an entry give the natural chain unless they say otherwise; changes in a name come on top.
UniProt C7C422: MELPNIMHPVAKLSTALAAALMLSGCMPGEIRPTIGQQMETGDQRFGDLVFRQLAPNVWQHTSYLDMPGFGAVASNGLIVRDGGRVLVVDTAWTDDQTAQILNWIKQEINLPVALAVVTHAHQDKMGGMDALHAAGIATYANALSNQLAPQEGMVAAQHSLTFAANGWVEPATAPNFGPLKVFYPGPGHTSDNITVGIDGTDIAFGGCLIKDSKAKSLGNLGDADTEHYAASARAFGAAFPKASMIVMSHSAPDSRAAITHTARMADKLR

The whole screen tested about 6,900 compounds, of which fewer than 10 were called active. The call rests on the fitted dose curve; in most records, active means well fitted curve in the direction sought with a large enough effect; inconclusive means small, poorly fitted or top-dose-only effect, or another doubt; inactive means no such curve, though single readings can be large or run the other way. The list shows a part of the results.

This test deals with Metallo-beta-lactamase type 2 (Klebsiella pneumoniae) (UniProt C7C422). The test is described as follows: qHTS to identify inhibitors of the New Delhi Metallo-beta-lactamase (NDM): primary screen against the NCATS Gemini Collection. Further: % of control where 0% means no effect. The note with it: NDM-1 enzyme, meropenem hydrolysis, absorbance 300 nm; at 38.4 µM (top of the series) unless noted. From the text: Assay Submitter (PI): James Inglese Ph.D., Patricia Dranchak Ph.D., Mahesh Aitha Ph.D. Assay Development and Screening Technology Laboratory (ADST) National Center for Advancing Translational Sciences (NCATS), Rockville, MD National Institute of Health (NIH), Bethesda, Maryland The metallo-beta-lactamases (MBL) are a main antibiotic resistance mechanism evolved by bacteria. There is an urgent clinical need for MBL inhibitors to mitigate this growing threat. To support a machine-based learning study, qHTS has been used to experimentally test inhibitors identified by prediction tools.
PROTOCOL TABLE (as described by Inglese et al., 2007) SEQUENCE No. (e.g., 1, 2, 3, etc.); […] (e.g., enzyme, Incubation, Reagent, etc.); VALUE; DESCRIPTION 1; NDM-1; 4 uL of 3 nM enzyme [2 nM final] in 50 mM HEPES (pH 7.0), 1 uM […], 0.01% Tween20; Use BioRaptr to dispense into Aurora black, clear bottom low base 1536-well plates 2; Compounds; 23 nL; Use Pin Tool (Wako) to transfer DMSO control and library compounds in DMSO 3; Incubate; >30 min 4; Reagent; 2 uL of 150 uM meropenem [50 uM final] 5; Incubate; 30 min. 6; Detector; Absorbance at 300 nm (bandwidth = 5 nm, 25 flashes/well) on Tecan Infinity NOTES (numbers refer to sequence above) 1; Column 1 of each plate received assay buffer without enzyme and columns 2-48 received enzyme for a final assay concentration of 2 nM. 2; Control plate contained DMSO in columns 1, 2, 3, and 4. 3; Compound interaction with enzyme. 4; Meropenem substrate was prepared in the same assay buffer as step 1 for a final assay concentration of 50 uM and added to all wells across the assay plates. 5; Substrate interaction with enzyme, plateau phase of kinetics. 6; Default reader settings were applied for absorbance read at 300 nm, bandwidth = 5 nm, 25 flashes/well. References: Inglese J, Shamu CE, Guy RK. 2007. Reporting data from high-throughput screening of small-molecule libraries. Nat Chem Biol. doi:10.1038/nchembio0807-438 Yasgar A, Shinn P, Jadhav A, Auld D, Michael S, Zheng W, Austin CP, Inglese J, Simeonov A. 2008. Compound Management for Quantitative High-Throughput Screening. J Lab Autom 13:79 - 89. doi:10.1016/j.jala.2007.12.004
Take `N#Cc1cncc(N2CC3CCC(C2)N3CC(F)(F)F)c1`: the activity % (negative = inhibition) is inactive: 2.91% [at 57.5 µM].

Turning to `N[C@H]1[C@H](O)[C@@H](N2CCCCC2)[C@@H]2OC[C@H]1O2`, the activity % (negative = inhibition) was inactive: -1.36% [at 77.1 µM].

In the case of `COc1ccc(-c2cc([C@H]3CN4CC[C@H]3C[C@@H]4COC(=O)Nc3ccccc3)n(C)n2)cc1`, the activity % (negative = inhibition) is inactive: 10.2%.

Take `CCN(C1CCOCC1)C1CNC1`: the activity % (negative = inhibition) is inactive: 2.54%.

As to `CN(CCc1ccccn1)C[C@H]1CN2CC[C@H]1C[C@@H]2CNC(=O)c1ccco1`, the activity % (negative = inhibition) is inactive: -12.1% [at 57.5 µM].

With `CC(=O)c1cccc(NC(=O)NC[C@H]2C[C@@H]3CCN2C[C@@H]3c2cc(-c3ccc(F)cc3)nc(C)n2)c1`, the activity % (negative = inhibition) was inactive: 8.74%.

For the molecule `O=C1NC[C@H]2CN(C3CCOCC3)CCN12`, the activity % (negative = inhibition) was inactive: -0.184% [at 77.1 µM].

For the molecule `CN1c2cccnc2CNCC[C@H]1CO`, the activity % (negative = inhibition) was inactive: 0.229% [at 77.1 µM].

As for `COc1ccc(C(=O)NC[C@H]2C[C@@H]3CCN2C[C@@H]3c2cc(-c3cccs3)nn2C)cc1`, the activity % (negative = inhibition) was inactive: -0.61%.

`CN(CCc1ccccn1)C[C@H]1CN2CC[C@H]1C[C@@H]2CNC(=O)Nc1ccsc1`: the activity % (negative = inhibition) was inactive: -2.02% [at 57.5 µM].

As to `Nc1ncccc1CN1CC[C@H]2NCCC[C@]2(C(=O)O)C1`, the activity % (negative = inhibition) was inactive: 2.6%.

Take `COCC1CN(C2CCC2)CC12CCN(Cc1ccncc1)CC2` (centres undefined): the activity % (negative = inhibition) was inactive: -6.91%.

As for `Cc1nc(CCN)no1`, the activity % (negative = inhibition) is inactive: 18.4%.

`COc1ccc(-c2cc([C@H]3CN4CC[C@H]3C[C@@H]4COC(=O)NC3CCCCC3)nc(C)n2)cc1`: the activity % (negative = inhibition) is inactive: 1.01%.

In the case of `COCC1CN(Cc2ccsc2)CC12CCNCC2` (centres undefined), the activity % (negative = inhibition) was inactive: 0.108%.

Take `CC(=O)NC[C@H]1C[C@@H]2CCN1C[C@@H]2c1cc(-c2ccc3ccccc3c2)nn1C`: the activity % (negative = inhibition) was inactive: 2.52% [at 57.5 µM].

`CN1C(=O)[C@H]2CN(Cc3ccsc3)C[C@H]2C1=O`: the activity % (negative = inhibition) was inactive: 0.493%.

Regarding `O=C(Nc1ccc2n(c1=O)C[C@H]1C[C@@H]2CN(CC2CCCCC2)C1)C1CCCCC1`, the activity % (negative = inhibition) was inactive: 6.12% [at 57.5 µM].

On to `Cc1ncc2c(n1)C[C@@H]1CC[C@H]2N1C(=O)C1CCC1`, for which the activity % (negative = inhibition) is inactive: 7.25%.

Take `Cc1cnc(N2CC3CCC(C2)N3CC(F)(F)F)c([N+](=O)[O-])c1`: the activity % (negative = inhibition) is inactive: 3.49%.

On to `O=C(Nc1ccc(=O)n2c1[C@@H]1C[C@@H](CN(S(=O)(=O)c3ccccc3)C1)C2)c1ccco1`, for which the activity % (negative = inhibition) was inactive: 13.4%.

On to `CSCC(=O)Nc1ccc(=O)n2c1[C@@H]1C[C@@H](CN(C(=O)NC3CCCCC3)C1)C2`, for which the activity % (negative = inhibition) is inactive: 6.87% [at 57.5 µM].

On to `O=C(Nc1ccccc1)C1=NO[C@@H]2CN(Cc3ccccn3)C[C@H]12`, for which the activity % (negative = inhibition) was inactive: 9.83% [at 57.5 µM].

Turning to `O=C(C1CCCCC1)N1C[C@@H]2C[C@H](C1)c1c(-c3cncnc3)ccc(=O)n1C2`, the activity % (negative = inhibition) is inactive: 3.13% [at 57.5 µM].

With `COCc1cn(C[C@H]2C[C@@H]3CCN2C[C@@H]3C(=O)NCc2ccco2)nn1`, the activity % (negative = inhibition) is inactive: 0.982% [at 57.5 µM].

In the case of `O=C1NCCCCCCN[C@H]2CCC[C@@H]12`, the activity % (negative = inhibition) is inactive: -9.92%.

Turning to `CC(=O)c1ccc(NC(=O)OC[C@H]2C[C@@H]3CCN2C[C@@H]3c2cc(-c3cccs3)nn2C)cc1`, the activity % (negative = inhibition) is inactive: 1.88%.

In the case of `C#C[C@H]1CN2CC[C@H]1C[C@@H]2CNS(=O)(=O)c1cccs1`, the activity % (negative = inhibition) was inactive: 0.508% [at 57.5 µM].

On to `Cc1ccc([C@H]2C[C@@H](O)[C@@H](O)[C@@H]2NCC(C)C)cc1`, for which the activity % (negative = inhibition) was inactive: 11.3% [at 77.1 µM].

Turning to `CC(C)NC(=O)NC[C@H]1C[C@@H]2CCN1C[C@@H]2CN1CCC(Cc2ccccc2)CC1`, the activity % (negative = inhibition) is inactive: 0.575% [at 57.5 µM].

`C#C[C@H]1CN2CC[C@H]1C[C@@H]2CNC(=O)COCC(=O)O`: the activity % (negative = inhibition) is inactive: -1.02% [at 77.1 µM].

As to `O=c1c(-c2cccc(C(F)(F)F)c2)ccc2n1C[C@H]1C[C@@H]2CN(S(=O)(=O)c2cccs2)C1`, the activity % (negative = inhibition) was inactive: 3.39%.

In the case of `Cn1nc(-c2cccs2)cc1[C@H]1CN2CC[C@H]1C[C@@H]2CNC(=O)Nc1ccccc1`, the activity % (negative = inhibition) is inactive: 2.08% [at 57.5 µM].

On to `O=C(c1ccncc1)N1C2CCC1CN(Cc1cccnc1)C2`, for which the activity % (negative = inhibition) was inactive: 27.3%.

Turning to `Cn1nc(C2CCCNC2)n(C2CCCC2)c1=O` (centres undefined), the activity % (negative = inhibition) is inactive: 2.04%.

For `O=C(O)C1=NOC2CN(Cc3cncs3)CC12` (centres undefined), the activity % (negative = inhibition) was inactive: 10.9% [at 57.5 µM].

Regarding `COc1ccc(-c2cc3c(cn2)CN(C)CCN3)cn1`, the activity % (negative = inhibition) is inactive: 26.9% [at 77.1 µM].

As to `O[C@@H]1CNC2Cc3c([nH]c4ccccc34)C1C2` (some centres undefined), the activity % (negative = inhibition) is inactive: -11.6%.

For `Cn1cnc(S(=O)(=O)N2[C@H]3CC[C@@H]2c2cnc(-c4ccccc4)nc2C3)c1`, the activity % (negative = inhibition) is inactive: 6.7%.
